Measured data: PubChem BioAssay AID1508588 (Peter MacCallum Cancer Centre, 2020)
Purpose: 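Knock-downs boosting vemurafenib effects on melanoma cell growth or lactate release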 (primary screen). Cells: human WM266.4 melanoma cells (BRAF V600 mutant). Reagent: siRNA pool against human genes, 40 nM. Time to read-out: 96 h from transfection to read-out. Challenge: vemurafenib 300 nM (about IC25), added 48 h after transfection, for 48 h; comparison arm got DMSO vehicle only. Read-out: 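Cell gain (DAPI nuclei at end minus before drug, mean of two replicates) and medium lactate by absorbance per cell, both as ratio to non-targeting siRNA, also grouped into fold-change classes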. Reading the numbers: cell gain with vemurafenib: higher = more cell gain than with non-targeting siRNA; lactate per cell with vemurafenib: higher = more lactate made per cell. Active means: 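Enhancement is called by pairing each knock-down's vehicle-arm and drug-arm fold-change classes for viability or glycolysis; which class combinations qualify is not given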. Meaning of the calls: active = enhances vemurafenib effect; inactive = no enhancement seen.
This is one part, drawn at random, of about 18,000 reagents. Over the whole deposit, 790 (4.4%) were called active. 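Calls rest on a combination of fold-change classes in drug and vehicle arms, not all shown here.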

ACSL5 [SID134311734]: cell gain with vemurafenib = 0.85; lactate per cell with vemurafenib = 0.89; call = inactive
SLC2A10 [SID134312556]: cell gain with vemurafenib = 0.47; lactate per cell with vemurafenib = 0.97; call = inactive
MED12 [SID152147641]: cell gain with vemurafenib = 0.55; lactate per cell with vemurafenib = 0.4; call = active
DNASE2B [SID135621542]: cell gain with vemurafenib = 0.8; lactate per cell with vemurafenib = 0.31; call = inactive
SYNC [SID134318765]: cell gain with vemurafenib = -0.02; lactate per cell with vemurafenib = 2.07; call = inactive
ATP13A3 [SID152151932]: cell gain with vemurafenib = 0.65; lactate per cell with vemurafenib = 1.77; call = inactive
NPFFR2 [SID134311035]: cell gain with vemurafenib = 0.64; lactate per cell with vemurafenib = 0.78; call = inactive
CENPX [SID152153499]: cell gain with vemurafenib = 0.76; lactate per cell with vemurafenib = 0.87; call = inactive
CD55 [SID134310529]: cell gain with vemurafenib = 0.84; lactate per cell with vemurafenib = 0.7; call = inactive
SGSM2 [SID135624345]: cell gain with vemurafenib = 0.92; lactate per cell with vemurafenib = 1.46; call = inactive
RAP1GDS1 [SID135623041]: cell gain with vemurafenib = 0.67; lactate per cell with vemurafenib = 1.19; call = inactive
ZNF445 [SID135621333]: cell gain with vemurafenib = 0.3; lactate per cell with vemurafenib = 0.97; call = inactive
LSM11 [SID152155857]: cell gain with vemurafenib = 1.08; lactate per cell with vemurafenib = 0.57; call = inactive
RUSC2 [SID152150260]: cell gain with vemurafenib = 0.02; lactate per cell with vemurafenib = 1.22; call = inactive
UGT1A6 [SID135623937]: cell gain with vemurafenib = 0.93; lactate per cell with vemurafenib = 0.68; call = inactive
CFAP410 [SID152151149]: cell gain with vemurafenib = -0.01; lactate per cell with vemurafenib = 1.86; call = inactive
SPAG4 [SID134315739]: cell gain with vemurafenib = 0.94; lactate per cell with vemurafenib = 0.87; call = inactive
ZMYND19 [SID135624198]: cell gain with vemurafenib = 0.91; lactate per cell with vemurafenib = 1; call = inactive
NFU1 [SID135624008]: cell gain with vemurafenib = 0.56; lactate per cell with vemurafenib = 0.66; call = active
PDGFRB [SID152152554]: cell gain with vemurafenib = 0.55; lactate per cell with vemurafenib = 1.24; call = inactive

Records listed so far with an active call:
MED12 [SID152147641]: cell gain with vemurafenib = 0.55; lactate per cell with vemurafenib = 0.4; call = active
NFU1 [SID135624008]: cell gain with vemurafenib = 0.56; lactate per cell with vemurafenib = 0.66; call = active

Continued.
ARID3B [SID152151373]: cell gain with vemurafenib = 0.12; lactate per cell with vemurafenib = 3; call = inactive
MROH7 [SID135624668]: cell gain with vemurafenib = 0.6; lactate per cell with vemurafenib = 1.84; call = inactive
SPON1 [SID152152486]: cell gain with vemurafenib = 0.16; lactate per cell with vemurafenib = 0.92; call = inactive
BEX2 [SID152151680]: cell gain with vemurafenib = 0.31; lactate per cell with vemurafenib = 0.65; call = inactive
NIPAL2 [SID134318590]: cell gain with vemurafenib = 0.5; lactate per cell with vemurafenib = 1.65; call = inactive
UBASH3A [SID134313482]: cell gain with vemurafenib = 0.52; lactate per cell with vemurafenib = 1.48; call = inactive
CCNL2 [SID152154025]: cell gain with vemurafenib = 0.99; lactate per cell with vemurafenib = 0.94; call = inactive
PSTPIP2 [SID134320756]: cell gain with vemurafenib = 0.47; lactate per cell with vemurafenib = 1.23; call = inactive
KANSL3 [SID135623239]: cell gain with vemurafenib = 0.63; lactate per cell with vemurafenib = 0.94; call = inactive
USPL1 [SID134321653]: cell gain with vemurafenib = 0.17; lactate per cell with vemurafenib = 1.21; call = inactive
ZDHHC1 [SID135622690]: cell gain with vemurafenib = 0.86; lactate per cell with vemurafenib = 0.78; call = inactive
ZNF443 [SID152154208]: cell gain with vemurafenib = 0.51; lactate per cell with vemurafenib = 0.29; call = inactive
TM9SF1 [SID135623131]: cell gain with vemurafenib = 1.3; lactate per cell with vemurafenib = 0.57; call = inactive
FOXQ1 [SID152148541]: cell gain with vemurafenib = 0.73; lactate per cell with vemurafenib = 0.96; call = inactive
GK [SID56479100]: cell gain with vemurafenib = 0.73; lactate per cell with vemurafenib = 0.77; call = inactive
CHMP5 [SID152151570]: cell gain with vemurafenib = 0.83; lactate per cell with vemurafenib = 0.74; call = inactive
CHMP4C [SID152154849]: cell gain with vemurafenib = 0.38; lactate per cell with vemurafenib = 1.94; call = inactive
DNAJC17 [SID134324748]: cell gain with vemurafenib = 0.35; lactate per cell with vemurafenib = 1.16; call = inactive
TMSB4Y [SID135622027]: cell gain with vemurafenib = 0.62; lactate per cell with vemurafenib = 0.98; call = inactive
MAST1 [SID135620865]: cell gain with vemurafenib = 0.69; lactate per cell with vemurafenib = 1.68; call = inactive
RPS28 [SID152153113]: cell gain with vemurafenib = -0.03; lactate per cell with vemurafenib = 1.48; call = inactive
OSBPL5 [SID134314038]: cell gain with vemurafenib = 0.8; lactate per cell with vemurafenib = 0.96; call = inactive
FUNDC2 [SID152148255]: cell gain with vemurafenib = 0.63; lactate per cell with vemurafenib = 0.72; call = inactive
NMB [SID134310186]: cell gain with vemurafenib = 0.93; lactate per cell with vemurafenib = 0.55; call = inactive
ATXN7L1 [SID152149367]: cell gain with vemurafenib = 0.82; lactate per cell with vemurafenib = 0.87; call = inactive
IL17RB [SID152154993]: cell gain with vemurafenib = 0.55; lactate per cell with vemurafenib = 0.42; call = inactive
PHB2 [SID134322547]: cell gain with vemurafenib = 0.09; lactate per cell with vemurafenib = 2.59; call = inactive
LINC02870 [SID135623535]: cell gain with vemurafenib = 0.44; lactate per cell with vemurafenib = 2.04; call = inactive
GTF3C2 [SID135623789]: cell gain with vemurafenib = 0.87; lactate per cell with vemurafenib = 1.09; call = inactive
COX11 [SID134316154]: cell gain with vemurafenib = 1.04; lactate per cell with vemurafenib = 0.86; call = inactive
PAH [SID134313742]: cell gain with vemurafenib = 0.39; lactate per cell with vemurafenib = 1.89; call = inactive
XPNPEP2 [SID135621143]: cell gain with vemurafenib = 0.86; lactate per cell with vemurafenib = 0.62; call = inactive
